From patent US20210299111A1, “EIF4A INHIBITOR COMBINATIONS” (eFFECTOR Therapeutics Inc., priority 2020, published 2021)
At least one compound was matched to its structure with a doubt left.

What was measured:
Format in all cases: cell-based
[1] = tested on: DLD1 (KRAS G13D) colorectal cancer cells; test: Cell viability (crystal violet) in KRAS mutant DLD1 cells; conditions: Palbociclib 100 nM, eFT226 10 or 50 nM, 24 hours, then Palbociclib alone for 13 days, FIG. 5
Protocol: (§1) SW620 (KRAS G12V) colorectal cancer cells (FIG. 1), DLD1 (KRAS G13D) colorectal cancer cells (FIG. 2), and CORL23 (KRAS G12V) NSCLC cells (FIG. 3) were seeded at 500-1,000 cells/well in 6-well plates and treated with DMSO control (“DMSO”), Palbociclib (100 nM) (“Palbo”), eFT226 (10 or 50 nM), or the combination of the two drugs (“Palbo+eFT226). After 24 hours of treatment, cells were rinsed and treatment with Palbociclib alone was continued for an additional 13 days. At the end of treatment, cells were rinsed with phosphate buffered saline (PBS) and stained with crystal violet.

[2] = tested on: CORL23 (KRAS G12V) NSCLC cells; test: Cell viability (crystal violet) in KRAS mutant CORL23 cells; conditions: Palbociclib 100 nM, eFT226 10 or 50 nM, 24 hours, then Palbociclib alone for 13 days, FIG. 6
Protocol: as §1

[3] = tested on: MDA-MB-361 ER^+ breast cancer cells; test: Cell viability of MDA-MB-361 cells, single agents and combination; conditions: Palbociclib 40 nM, eFT226 45 nM, 24 hours, then Palbociclib only for 6 days, versus untreated control, FIG. 2
Protocol: MDA-MB-361 ER^+ breast cancer cells were seeded at 10,000 cells/well in 24-well plates and treated with DMSO (“control”), Palbociclib (40 nM)(“Palbo”), eFT226 (45 nM) (“eFT226”), or the combination of the two drugs (“Combo”). After 24 hours of treatment, cells were rinsed and treatment with Palbociclib only was continued for 6 days, at which time cell viability was determined. Cells were counted on day 0 and day 6, when the experiment was ended.

[4] = tested on: SW620 (KRAS G12V) colorectal cancer cells; test: Cell viability (crystal violet) in KRAS mutant SW620 cells; conditions: Palbociclib 100 nM, eFT226 10 or 50 nM, 24 hours, then Palbociclib alone for 13 days, FIG. 4
Protocol: as §1

Measured: cell viability

CC(=O)c1c(C)c2cnc(Nc3ccc(N4CCNCC4)cn3)nc2n(C2CCCC2)c1=O [palbociclib, reference compound]
reduced: all assays above
